Substitutions are numbered along the chain they refer to. Names may count otherwise.
B1: NEP^F563L: neprilysin active site mutant, Phe563 to leucine (protein, UniProt P08473 2-750, looked up, variant F563L)
Neprilysin: GKSESQMDITDINTPKPKKKQRWTPLEISLSVLVLLLTIIAVTMIALYATYDDGICKSSDCIKSAARLIQNMDATTEPCTDFFKYACGGWLKRNVIPETSSRYGNFDILRDELEVVLKDVLQEPKTEDIVAVQKAKALYRSCINESAIDSRGGEPLLKLLPDIYGWPVATENWEQKYGASWTAEKAIAQLNSKYGKKVLINLFVGTDDKNSVNHVIHIDQPRLGLPSRDYYECTGIYKEACTAYVDFMISVARLIRQEERLPIDENQLALEMNKVMELEKEIANATAKPEDRNDPMLLYNKMTLAQIQNNFSLEINGKPFSWLNFTNEIMSTVNISITNEEDVVVYAPEYLTKLKPILTKYSARDLQNLMSWRFIMDLVSSLSRTYKESRNAFRKALYGTTSETATWRRCANYVNGNMENAVGRLYVEAAFAGESKHVVEDLIAQIREVFIQTLDDLTWMDAETKKRAEEKALAIKERIGYPDDIVSNDNKLNNEYLELNYKEDEYFENIIQNLKFSQSKQLKKLREKVDKDEWISGAAVVNAFYSSGRNQIVFPAGILQPPLFSAQQSNSLNYGGIGMVIGHEITHGFDDNGRNFNKDGDLVDWWTQQSASNFKEQSQCMVYQYGNFSWDLAGGQHLNGINTLGENIADNGGLGQAYRAYQNYIKKNGEEKLLPGLDLNHKQLFFLNFAQVWCGTYRPEYAVNSIKTDVHSPGNFRIIGTLQNSAEFSEAFHCRKNSYMNPEKKCRVW
B2: NEP^F563V: neprilysin active site mutant, Phe563 to valine (protein, UniProt P08473 2-750, looked up, variant F563V)
Neprilysin: B1 Neprilysin with L563V
B3: NEP^F563M: neprilysin active site mutant, Phe563 to methionine (protein, UniProt P08473 2-750, looked up, variant F563M)
Neprilysin: B1 Neprilysin with L563M
B4: NEP^F563I: neprilysin active site mutant, Phe563 to isoleucine (protein, UniProt P08473 2-750, looked up, variant F563I)
Neprilysin: B1 Neprilysin with L563I

Tested on: HEK293 cells
Assay: Expression of mutant NEP in transfected HEK293 cells
Conditions: individual mutant library members transfected in HEK293

Row | Molecule | Expression level in HEK293 cells (in words)
1 | B1 | expressed at levels near to that of wild-type NEP
2 | B2 | expressed at levels near to that of wild-type NEP
3 | B3 | expressed at levels near to that of wild-type NEP
4 | B4 | expressed at levels near to that of wild-type NEP
